From patent US11524082B2 (priority 2017, dated 2022)

Columns and labels:
[1] = general procedure: Fmoc solid-phase peptide synthesis; H-Cys(Trt)-2-chlorotrityl resin; 1-[Bis(dimethylamino)methylene]-1H-1,2,3-triazolo[4,5-b]pyridinium 3-oxid hexafl; conditions: whole synthesis, scale of the general procedure 100 mg resin
[2] = general procedure: Fmoc solid-phase peptide synthesis; H-Cys(Trt)-2-chlorotrityl resin (0.64 mmole/g); 1-[Bis(dimethylamino)methylene]-1H-1,2,3-triazolo[4,5-b]pyridinium 3-oxid hexafl; conditions: whole synthesis, scale of the general procedure 100 mg resin

## (2R,5S,8S)-8-amino-5,12-bis(carboxymethyl)-18-(3-(2-(2-(3-((2-(cyclooctylamino)-3,5,6-trifluoro-4-sulfamoylphenyl)sulfonyl)propanamido)ethoxy)ethoxy)propanamido)-15-(3-guanidinopropyl)-2-(mercaptomethyl)-4,7,11,14,17-pentaoxo-3,6,10,13,16-pentaazaicosanedioic
[1]
  isolated yield: 62%

## ((2S)-2-amino-3-(3-carboxy-2-(2-(3-carboxy-2-(3-(2-(2-(3-((2-(cyclooctylamino)-3,5,6-trifluoro-4-sulfamoylphenyl)sulfonyl)propanamido)ethoxy)ethoxy)propanamido)propanamido)-5-guanidinopentanamido)propanamido)propanoyl)-L-aspartic acid
[2]
  isolated yield: 62%
